These are yes or no findings as the source states them, for the method shown. For part of these data: In cells and extracts the contact can be indirect. Some binding calls cover weakened binding; strength is not graded here.

Sequences of proteins named here, by UniProt entry; tags and fusion partners are left off.
UniProt Q96RU7: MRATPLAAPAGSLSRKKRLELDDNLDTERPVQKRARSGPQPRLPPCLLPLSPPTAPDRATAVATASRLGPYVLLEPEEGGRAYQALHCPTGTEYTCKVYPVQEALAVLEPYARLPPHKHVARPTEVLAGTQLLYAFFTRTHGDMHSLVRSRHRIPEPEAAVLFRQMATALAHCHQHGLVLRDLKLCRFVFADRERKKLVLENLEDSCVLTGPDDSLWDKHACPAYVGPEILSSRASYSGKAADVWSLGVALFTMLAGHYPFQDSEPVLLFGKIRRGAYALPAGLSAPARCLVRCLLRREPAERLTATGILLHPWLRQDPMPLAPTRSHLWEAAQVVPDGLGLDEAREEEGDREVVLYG
UniProt Q13546: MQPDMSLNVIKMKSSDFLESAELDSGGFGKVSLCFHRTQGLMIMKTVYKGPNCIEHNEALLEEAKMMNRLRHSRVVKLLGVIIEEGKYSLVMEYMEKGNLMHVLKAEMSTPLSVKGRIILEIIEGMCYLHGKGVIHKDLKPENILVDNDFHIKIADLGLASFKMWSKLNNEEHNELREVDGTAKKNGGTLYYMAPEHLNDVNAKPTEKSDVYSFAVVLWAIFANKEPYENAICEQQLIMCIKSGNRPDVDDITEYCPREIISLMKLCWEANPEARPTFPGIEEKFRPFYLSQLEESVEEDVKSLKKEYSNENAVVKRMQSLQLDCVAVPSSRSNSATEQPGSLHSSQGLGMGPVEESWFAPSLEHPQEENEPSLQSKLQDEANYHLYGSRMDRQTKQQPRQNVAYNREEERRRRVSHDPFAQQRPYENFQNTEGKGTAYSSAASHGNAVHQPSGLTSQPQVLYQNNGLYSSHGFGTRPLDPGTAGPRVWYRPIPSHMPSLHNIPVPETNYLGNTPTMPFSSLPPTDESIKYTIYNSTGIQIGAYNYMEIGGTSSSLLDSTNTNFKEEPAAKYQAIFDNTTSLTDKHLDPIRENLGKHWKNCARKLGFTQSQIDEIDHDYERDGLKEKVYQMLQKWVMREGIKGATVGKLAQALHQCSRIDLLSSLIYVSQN

These results are taken from paper PMC4557121, “TRB3 links insulin/IGF to tumour promotion by interacting with p62 and impeding autophagic/proteasomal degradations” (Nature Communications, 2015).

One assay addresses TRB3-GST fusion protein (UniProt Q96RU7). The assay is described as follows: pull-down; purified and immobilized GST fusion proteins from E. coli BL21 incubated with His-tagged purified protein; bound proteins blotted with anti-His antibody; both purified.
Assay [1] concerns the target p62 (endogenous) (human (endogenous in HepG2)) (UniProt Q13501). The assay is described as follows: co-IP; HepG2 cells treated with control or Pep2–A2 peptide (5 μM, 12 h), lysates immunoprecipitated; Supplementary Fig. 6b–f, legend not shown.
The next assay has as its target purified TRB3 protein (UniProt Q96RU7). The assay is described as follows: ELISA; competitive: plates coated with TRB3; p62 binding competed with 0.1–100 μg ml^-1 of HRP-non-conjugated A2 or control peptide, 1 h; both purified. Background: An ELISA detects its analyte on a solid surface through an enzyme-linked reagent.

As for His-p62 (from UniProt Q13501 1-440), in the assay with TRB3-GST fusion protein, the binding result was “binds”. In the case of RIP1 (from UniProt Q13546 1-671), the binding result in assay [1] is recorded as “binds”.

As to “p62 protein (ELISA) (from UniProt Q13501 1-440)”, the binding result with purified TRB3 protein was “binds”.
